The values that follow come from paper PMC7819943, “Rice protein-binding microarrays: a tool to detect cis-acting elements near promoter regions in rice”.

The other results are listed elsewhere or left out.

The target in the assay is T1, OsSMF1 (Oryza sativa, UniProt Q6ZLB0 1-436).
T1 sequence: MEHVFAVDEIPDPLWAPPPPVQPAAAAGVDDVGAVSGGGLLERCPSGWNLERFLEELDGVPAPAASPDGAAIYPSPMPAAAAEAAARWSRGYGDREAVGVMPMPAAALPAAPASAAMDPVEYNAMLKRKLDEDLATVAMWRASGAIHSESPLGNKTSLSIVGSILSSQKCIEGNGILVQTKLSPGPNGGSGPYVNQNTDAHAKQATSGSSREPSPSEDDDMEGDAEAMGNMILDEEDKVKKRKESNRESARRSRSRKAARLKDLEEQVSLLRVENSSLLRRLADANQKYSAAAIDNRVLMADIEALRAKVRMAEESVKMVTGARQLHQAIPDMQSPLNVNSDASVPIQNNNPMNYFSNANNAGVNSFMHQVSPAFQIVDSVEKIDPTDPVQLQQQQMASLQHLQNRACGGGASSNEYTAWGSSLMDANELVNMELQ
The assay can be described thus: protein-binding microarray (RPBM); PBS, 2% BSA, 51.3 ng/ul salmon testes DNA, 50 uM zinc acetate, 200 nM TF, 25 C, 1 h; high values mean tight binding. Conditions: protein: recombinant; tags: N-terminal polyhistidine and DsRed monomer fusion (pET32a); chain copies: 2; label: CyDye5-dUTP incorporated in the synthesized complementary strand; 3' TTTTT single-stranded linker to array surface; dsDNA, one strand shown. Summed up: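 The binding signal for each feature is its fluorescence intensity in arbitrary units. An Axon 4000B scanner was used to read a custom Agilent array that had been made double-stranded with Cy5-dUTP primer extension, blocked with 2% BSA, incubated at 25 °C for 1 h with 200 nM protein in PBS, 2% BSA, salmon testes DNA and 50 µM zinc acetate, and washed. The protein was an N-terminal polyhistidine–DsRed transcription factor fusion from E. coli BL21-CodonPlus, purified on Ni–NTA.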
Turning to “GCTGATTTCTGTAATTTCTTACGTGGGTCCAACAGGTGATCGGAGTCACCTAGTGCAG”, the binding signal is 3670 fluorescence intensity (a.u.).

Turning to “ACATAACACTATAGCTTAAAAGATATCATCATATCTAAGCCGGAGTCACCTAGTGCAG”, the binding signal was 3600 fluorescence intensity (a.u.).

Turning to “CCCACTGACGGCTCGACCCCACGTTGCGTGGGTCCCACGCCGGAGTCACCTAGTGCAG”, the binding signal was 4910 fluorescence intensity (a.u.).

On to “CCTCGTCAATTTCTCATTCGCCGTAGGACACCTAAGCACACGGAGTCACCTAGTGCAG”, for which the binding signal is 3930 fluorescence intensity (a.u.).

For “AAATTGTGAGCCATAGTGTCATCTTTTCATAGCTTTATTCCGGAGTCACCTAGTGCAG”, the binding signal was 3400 fluorescence intensity (a.u.).

Take “CCGAGAGAAAGAGAGCAAGAGAGAGAGACGGGCTCAAGAGCGGAGTCACCTAGTGCAG”: the binding signal was 4560 fluorescence intensity (a.u.).

Turning to “AGCCTGAAGCTGCTTTCGTCGTCACCGGTTGCCGTCTGATCGGAGTCACCTAGTGCAG”, the binding signal is 4560 fluorescence intensity (a.u.).

On to “TTAGCCATTGCTACTTGCTTGCAGCGCGCGTGTCGGCTAGCGGAGTCACCTAGTGCAG”, for which the binding signal was 25300 fluorescence intensity (a.u.).

For the sequence “CCCCACGCAGTCCAGAGCGGATCGAATGCGTGGCCCTCGCCGGAGTCACCTAGTGCAG”, the binding signal is 3280 fluorescence intensity (a.u.).

For the sequence “TCTGGTCTTTCCGCGTGTCGACGACCACGGTGGCGGTGCACGGAGTCACCTAGTGCAG”, the binding signal is 3540 fluorescence intensity (a.u.).

Take “AACTGATATGTAGGGTATGATTGTAATGAAATTACGATTGCGGAGTCACCTAGTGCAG”: the binding signal is 4750 fluorescence intensity (a.u.).

As for “CTGTATTCATTAGGGTGGGACTGTATACTATAGTTATTATCGGAGTCACCTAGTGCAG”, the binding signal is 3190 fluorescence intensity (a.u.).

Turning to “CTTCACCTTCCGAATCCTGAACTGACGTCTGCAAGACTGCCGGAGTCACCTAGTGCAG”, the binding signal is 5270 fluorescence intensity (a.u.).

Turning to “AACGTCGCCGCTTGGTCTCCACGTCGAGTGGTCCTAGCCCCGGAGTCACCTAGTGCAG”, the binding signal is 5250 fluorescence intensity (a.u.).

In the case of “CAAGATCCGACGGCTCCCAATGGCTCTGGTGACATGTCTCCGGAGTCACCTAGTGCAG”, the binding signal is 3470 fluorescence intensity (a.u.).

“GATGGGACCACTCGTGACTCGTGCCACCCTCCGTGGCCCACGGAGTCACCTAGTGCAG”: the binding signal is 3680 fluorescence intensity (a.u.).

“GATCACTGTACTGTACAGAGGCTAGCTCTAGCTAGGTAGCCGGAGTCACCTAGTGCAG”: the binding signal was 26000 fluorescence intensity (a.u.).

As to “AATGGCTTTTATCAGATTCGCGGTGGACACGTGTCCATCACGGAGTCACCTAGTGCAG”, the binding signal was 16700 fluorescence intensity (a.u.).

“TTCCCGCCTACATTTTCGCCACGTCAGCGATCCGCACCGACGGAGTCACCTAGTGCAG”: the binding signal was 9350 fluorescence intensity (a.u.).

On to “ACTGTATTCCAGATCAGTAAACAGGCAGACGTATAATATACGGAGTCACCTAGTGCAG”, for which the binding signal was 23200 fluorescence intensity (a.u.).

As to “CCATGTGGAGGGAATTTTGCCCGAACAAGAGGTGACTGTGCGGAGTCACCTAGTGCAG”, the binding signal is 4540 fluorescence intensity (a.u.).

Turning to “TGTACTATACTTGTGATGATGATGATCAGCCTCATAGTAGCGGAGTCACCTAGTGCAG”, the binding signal is 4340 fluorescence intensity (a.u.).

For the sequence “TACTCTGACATGAATTGGTAATTTTATATAGGCTTTATCTCGGAGTCACCTAGTGCAG”, the binding signal was 3200 fluorescence intensity (a.u.).

For the sequence “TCTCAATATCCAGTCGACGAGTCAGCAGCAGAGACGCAGACGGAGTCACCTAGTGCAG”, the binding signal is 5450 fluorescence intensity (a.u.).

Consider “TCTCTCTCACTCTTCTCTTGCAGGCCTGCGTGGCATACTACGGAGTCACCTAGTGCAG”, for which the binding signal was 7430 fluorescence intensity (a.u.).

On to “GGAAAACTGCCAATAGCATCATCATCAGGTTCTCTGATATCGGAGTCACCTAGTGCAG”, for which the binding signal was 22000 fluorescence intensity (a.u.).

As for “CGTCGATGCCAATACAATAACCATCATCATCATCATCATTCGGAGTCACCTAGTGCAG”, the binding signal was 20400 fluorescence intensity (a.u.).

Turning to “AAATCACAGAGTATTTTGGGTAGTGATGCTCGTGAGCCTACGGAGTCACCTAGTGCAG”, the binding signal was 4140 fluorescence intensity (a.u.).

For the sequence “GCAGCGGAAGACGTCGCGGCCGCGTCGACGATGACGCGCGCGGAGTCACCTAGTGCAG”, the binding signal was 3660 fluorescence intensity (a.u.).

Regarding “TTAGGCCTCTCACAGTGCTCTTAGCTGGACCGGTGCTACACGGAGTCACCTAGTGCAG”, the binding signal was 3920 fluorescence intensity (a.u.).

For the sequence “GTCGCCATGCTCGCCGCCGTGGCCACGCTCCTCCTCGACACGGAGTCACCTAGTGCAG”, the binding signal is 5020 fluorescence intensity (a.u.).

On to “GTGTGTGTGTGTGTGTGTGTGTGAACGATCGGTCTGTATCCGGAGTCACCTAGTGCAG”, for which the binding signal is 3920 fluorescence intensity (a.u.).

For the sequence “TGGCCCGCGGAGACGCAGAGGTTCCCCGGCATGGAGAACACGGAGTCACCTAGTGCAG”, the binding signal was 23000 fluorescence intensity (a.u.).

“TTATTATTATCGGCTGCCTCCACACGCACACGTGGGATAGCGGAGTCACCTAGTGCAG”: the binding signal is 6630 fluorescence intensity (a.u.).

For the sequence “AGACGCCACGCCGACACGCAGCTGCGTGTGCGAGGAGGAACGGAGTCACCTAGTGCAG”, the binding signal was 4930 fluorescence intensity (a.u.).

For the sequence “CTGCGTCGCATCGCTAGCCAACACGTACGTACAGCGCGCACGGAGTCACCTAGTGCAG”, the binding signal was 26600 fluorescence intensity (a.u.).

“TGTGAGATGACCAGCGAGTGATTGGTAAACTGTTTCAGTGCGGAGTCACCTAGTGCAG”: the binding signal was 13100 fluorescence intensity (a.u.).

In the case of “TCCCACGTTCAAGCCCTCCTCACCACCCTCACACCTCACACGGAGTCACCTAGTGCAG”, the binding signal is 3460 fluorescence intensity (a.u.).

With “CGTGTTCGCTTCCCGTGATATCCACGTCACCCTGCGCTGGCGGAGTCACCTAGTGCAG”, the binding signal is 25800 fluorescence intensity (a.u.).

Take “TTTTCTTCTGTTCGTGTGCGTGCTCGCGCCTTTCTTGCTTCGGAGTCACCTAGTGCAG”: the binding signal is 4250 fluorescence intensity (a.u.).

As for “TATTTCTTCACCTTTAGTCATGTCACCTCTCACTTCACACCGGAGTCACCTAGTGCAG”, the binding signal was 5120 fluorescence intensity (a.u.).

With “GCAAACTACCGGGAGCAGGTGGCTGCACTTGTGTCAGCACCGGAGTCACCTAGTGCAG”, the binding signal is 6160 fluorescence intensity (a.u.).
